Experimental findings from the supplement of paper PMC11006884 are described below.

The chains behind the UniProt entries cited, without tags or fusion partners. Where a name states a change or a piece, a line headed by the entry shows the natural chain unless it says otherwise.
UniProt Q6UB35, whole entry, looked up: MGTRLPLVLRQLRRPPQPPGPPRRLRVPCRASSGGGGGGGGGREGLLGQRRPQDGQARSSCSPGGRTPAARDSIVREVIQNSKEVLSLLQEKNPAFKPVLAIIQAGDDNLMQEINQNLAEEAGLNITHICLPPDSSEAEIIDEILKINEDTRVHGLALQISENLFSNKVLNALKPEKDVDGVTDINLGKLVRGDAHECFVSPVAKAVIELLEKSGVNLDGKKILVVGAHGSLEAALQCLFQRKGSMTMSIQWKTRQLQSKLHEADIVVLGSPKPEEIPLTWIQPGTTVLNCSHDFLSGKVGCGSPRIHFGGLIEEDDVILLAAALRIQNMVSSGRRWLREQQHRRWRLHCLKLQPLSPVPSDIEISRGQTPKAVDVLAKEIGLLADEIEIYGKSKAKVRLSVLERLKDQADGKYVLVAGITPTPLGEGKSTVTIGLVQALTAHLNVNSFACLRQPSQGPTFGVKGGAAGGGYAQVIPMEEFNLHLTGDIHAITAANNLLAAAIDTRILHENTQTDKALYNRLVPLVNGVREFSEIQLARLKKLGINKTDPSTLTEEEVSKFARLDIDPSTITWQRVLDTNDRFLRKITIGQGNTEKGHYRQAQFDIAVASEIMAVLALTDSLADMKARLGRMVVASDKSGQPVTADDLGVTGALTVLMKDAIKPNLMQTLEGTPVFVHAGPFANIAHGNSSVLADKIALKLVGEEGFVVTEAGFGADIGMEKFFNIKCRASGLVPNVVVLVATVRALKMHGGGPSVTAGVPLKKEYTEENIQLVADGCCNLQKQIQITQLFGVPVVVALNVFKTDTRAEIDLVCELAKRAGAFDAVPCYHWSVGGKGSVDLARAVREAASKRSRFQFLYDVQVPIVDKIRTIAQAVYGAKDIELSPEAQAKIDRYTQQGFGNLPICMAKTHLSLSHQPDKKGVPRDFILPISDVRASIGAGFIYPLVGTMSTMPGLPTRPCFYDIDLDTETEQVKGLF
UniProt Q5JTH9: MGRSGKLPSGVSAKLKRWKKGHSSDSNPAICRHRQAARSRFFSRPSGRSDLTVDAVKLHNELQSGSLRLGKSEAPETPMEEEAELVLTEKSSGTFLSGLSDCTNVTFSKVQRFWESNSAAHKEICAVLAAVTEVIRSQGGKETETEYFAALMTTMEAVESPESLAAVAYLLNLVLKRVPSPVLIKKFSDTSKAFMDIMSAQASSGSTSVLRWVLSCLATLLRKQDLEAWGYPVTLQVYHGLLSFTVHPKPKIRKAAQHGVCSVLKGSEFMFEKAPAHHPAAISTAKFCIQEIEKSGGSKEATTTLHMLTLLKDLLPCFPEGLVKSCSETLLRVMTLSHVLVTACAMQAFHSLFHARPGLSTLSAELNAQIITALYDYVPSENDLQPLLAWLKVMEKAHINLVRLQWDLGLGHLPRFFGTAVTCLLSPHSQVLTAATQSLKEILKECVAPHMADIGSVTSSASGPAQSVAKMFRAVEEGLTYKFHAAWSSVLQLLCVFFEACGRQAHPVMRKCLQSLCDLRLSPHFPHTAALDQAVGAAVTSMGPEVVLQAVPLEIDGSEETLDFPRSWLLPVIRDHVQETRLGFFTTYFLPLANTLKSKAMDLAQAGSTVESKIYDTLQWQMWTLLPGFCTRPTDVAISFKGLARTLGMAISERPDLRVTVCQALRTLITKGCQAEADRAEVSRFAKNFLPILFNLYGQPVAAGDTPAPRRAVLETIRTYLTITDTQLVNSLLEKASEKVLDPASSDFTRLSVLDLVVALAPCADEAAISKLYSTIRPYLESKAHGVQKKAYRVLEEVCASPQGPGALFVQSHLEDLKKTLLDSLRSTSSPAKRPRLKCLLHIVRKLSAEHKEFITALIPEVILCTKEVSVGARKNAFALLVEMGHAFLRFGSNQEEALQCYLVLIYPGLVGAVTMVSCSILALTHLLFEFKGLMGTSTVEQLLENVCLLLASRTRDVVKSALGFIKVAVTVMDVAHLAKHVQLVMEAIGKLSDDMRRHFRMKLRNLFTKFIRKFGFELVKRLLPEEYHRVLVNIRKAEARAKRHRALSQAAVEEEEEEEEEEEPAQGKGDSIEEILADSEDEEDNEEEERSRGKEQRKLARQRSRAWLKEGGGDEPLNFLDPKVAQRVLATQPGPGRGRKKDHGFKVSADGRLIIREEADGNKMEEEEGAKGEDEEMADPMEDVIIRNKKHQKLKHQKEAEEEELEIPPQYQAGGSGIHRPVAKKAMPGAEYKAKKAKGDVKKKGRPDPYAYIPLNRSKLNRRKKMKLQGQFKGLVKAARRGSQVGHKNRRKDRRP
UniProt Q5T5X7: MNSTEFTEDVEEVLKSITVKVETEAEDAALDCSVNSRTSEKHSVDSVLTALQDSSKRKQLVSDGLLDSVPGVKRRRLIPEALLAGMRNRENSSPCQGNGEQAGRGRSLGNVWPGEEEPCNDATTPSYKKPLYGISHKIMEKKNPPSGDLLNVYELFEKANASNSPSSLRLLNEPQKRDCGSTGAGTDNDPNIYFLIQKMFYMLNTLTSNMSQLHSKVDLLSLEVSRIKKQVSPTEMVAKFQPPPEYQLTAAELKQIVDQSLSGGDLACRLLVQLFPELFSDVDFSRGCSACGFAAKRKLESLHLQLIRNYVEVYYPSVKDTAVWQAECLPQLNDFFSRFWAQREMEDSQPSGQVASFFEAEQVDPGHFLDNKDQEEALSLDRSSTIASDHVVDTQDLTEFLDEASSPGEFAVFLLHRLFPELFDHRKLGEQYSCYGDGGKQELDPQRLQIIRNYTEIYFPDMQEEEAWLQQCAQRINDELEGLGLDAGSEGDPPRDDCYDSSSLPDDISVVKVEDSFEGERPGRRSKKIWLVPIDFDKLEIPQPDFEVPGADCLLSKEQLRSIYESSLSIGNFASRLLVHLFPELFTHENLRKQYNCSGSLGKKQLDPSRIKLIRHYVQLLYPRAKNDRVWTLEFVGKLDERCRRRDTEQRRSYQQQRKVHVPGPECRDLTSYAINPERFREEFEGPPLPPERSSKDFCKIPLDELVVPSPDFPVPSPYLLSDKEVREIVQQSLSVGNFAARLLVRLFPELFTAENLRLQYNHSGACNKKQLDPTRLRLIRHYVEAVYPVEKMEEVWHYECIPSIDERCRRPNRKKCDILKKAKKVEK
UniProt Q5TC12: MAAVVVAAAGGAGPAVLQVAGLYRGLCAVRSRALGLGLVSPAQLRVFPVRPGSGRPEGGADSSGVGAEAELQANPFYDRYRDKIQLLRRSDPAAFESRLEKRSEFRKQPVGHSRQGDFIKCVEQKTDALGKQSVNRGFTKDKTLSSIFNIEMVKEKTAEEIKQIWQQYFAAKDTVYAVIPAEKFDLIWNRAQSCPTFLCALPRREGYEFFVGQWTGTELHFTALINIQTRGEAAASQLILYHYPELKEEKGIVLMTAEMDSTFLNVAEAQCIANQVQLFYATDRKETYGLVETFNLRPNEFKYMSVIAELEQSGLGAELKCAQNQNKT
UniProt Q5FWF4: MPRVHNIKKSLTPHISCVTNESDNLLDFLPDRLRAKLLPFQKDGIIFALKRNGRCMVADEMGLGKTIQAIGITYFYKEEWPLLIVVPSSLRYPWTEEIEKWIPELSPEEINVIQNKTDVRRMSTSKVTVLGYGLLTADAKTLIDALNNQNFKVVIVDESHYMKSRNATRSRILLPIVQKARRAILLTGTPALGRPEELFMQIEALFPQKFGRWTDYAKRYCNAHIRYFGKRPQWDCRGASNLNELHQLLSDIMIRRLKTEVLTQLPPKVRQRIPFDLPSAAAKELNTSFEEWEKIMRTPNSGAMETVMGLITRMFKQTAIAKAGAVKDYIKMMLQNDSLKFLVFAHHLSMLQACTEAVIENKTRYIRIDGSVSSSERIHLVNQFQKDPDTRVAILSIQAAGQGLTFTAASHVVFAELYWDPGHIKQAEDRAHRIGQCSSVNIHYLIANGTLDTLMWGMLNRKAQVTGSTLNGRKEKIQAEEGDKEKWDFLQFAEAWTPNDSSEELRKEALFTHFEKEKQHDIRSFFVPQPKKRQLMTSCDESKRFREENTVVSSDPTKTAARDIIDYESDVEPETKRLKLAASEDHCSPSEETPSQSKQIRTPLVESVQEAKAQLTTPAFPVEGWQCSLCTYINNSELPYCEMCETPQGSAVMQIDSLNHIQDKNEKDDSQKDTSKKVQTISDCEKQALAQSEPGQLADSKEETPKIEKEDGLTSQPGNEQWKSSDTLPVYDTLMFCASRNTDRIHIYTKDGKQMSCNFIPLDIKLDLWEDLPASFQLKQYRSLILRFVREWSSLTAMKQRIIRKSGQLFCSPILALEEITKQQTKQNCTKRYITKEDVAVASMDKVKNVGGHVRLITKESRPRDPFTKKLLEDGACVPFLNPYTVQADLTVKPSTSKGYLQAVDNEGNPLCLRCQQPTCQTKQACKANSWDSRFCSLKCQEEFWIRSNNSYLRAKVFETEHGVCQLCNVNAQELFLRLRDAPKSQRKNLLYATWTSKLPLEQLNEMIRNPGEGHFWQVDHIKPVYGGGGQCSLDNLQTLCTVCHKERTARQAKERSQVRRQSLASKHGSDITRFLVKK
UniProt Q5SRE5: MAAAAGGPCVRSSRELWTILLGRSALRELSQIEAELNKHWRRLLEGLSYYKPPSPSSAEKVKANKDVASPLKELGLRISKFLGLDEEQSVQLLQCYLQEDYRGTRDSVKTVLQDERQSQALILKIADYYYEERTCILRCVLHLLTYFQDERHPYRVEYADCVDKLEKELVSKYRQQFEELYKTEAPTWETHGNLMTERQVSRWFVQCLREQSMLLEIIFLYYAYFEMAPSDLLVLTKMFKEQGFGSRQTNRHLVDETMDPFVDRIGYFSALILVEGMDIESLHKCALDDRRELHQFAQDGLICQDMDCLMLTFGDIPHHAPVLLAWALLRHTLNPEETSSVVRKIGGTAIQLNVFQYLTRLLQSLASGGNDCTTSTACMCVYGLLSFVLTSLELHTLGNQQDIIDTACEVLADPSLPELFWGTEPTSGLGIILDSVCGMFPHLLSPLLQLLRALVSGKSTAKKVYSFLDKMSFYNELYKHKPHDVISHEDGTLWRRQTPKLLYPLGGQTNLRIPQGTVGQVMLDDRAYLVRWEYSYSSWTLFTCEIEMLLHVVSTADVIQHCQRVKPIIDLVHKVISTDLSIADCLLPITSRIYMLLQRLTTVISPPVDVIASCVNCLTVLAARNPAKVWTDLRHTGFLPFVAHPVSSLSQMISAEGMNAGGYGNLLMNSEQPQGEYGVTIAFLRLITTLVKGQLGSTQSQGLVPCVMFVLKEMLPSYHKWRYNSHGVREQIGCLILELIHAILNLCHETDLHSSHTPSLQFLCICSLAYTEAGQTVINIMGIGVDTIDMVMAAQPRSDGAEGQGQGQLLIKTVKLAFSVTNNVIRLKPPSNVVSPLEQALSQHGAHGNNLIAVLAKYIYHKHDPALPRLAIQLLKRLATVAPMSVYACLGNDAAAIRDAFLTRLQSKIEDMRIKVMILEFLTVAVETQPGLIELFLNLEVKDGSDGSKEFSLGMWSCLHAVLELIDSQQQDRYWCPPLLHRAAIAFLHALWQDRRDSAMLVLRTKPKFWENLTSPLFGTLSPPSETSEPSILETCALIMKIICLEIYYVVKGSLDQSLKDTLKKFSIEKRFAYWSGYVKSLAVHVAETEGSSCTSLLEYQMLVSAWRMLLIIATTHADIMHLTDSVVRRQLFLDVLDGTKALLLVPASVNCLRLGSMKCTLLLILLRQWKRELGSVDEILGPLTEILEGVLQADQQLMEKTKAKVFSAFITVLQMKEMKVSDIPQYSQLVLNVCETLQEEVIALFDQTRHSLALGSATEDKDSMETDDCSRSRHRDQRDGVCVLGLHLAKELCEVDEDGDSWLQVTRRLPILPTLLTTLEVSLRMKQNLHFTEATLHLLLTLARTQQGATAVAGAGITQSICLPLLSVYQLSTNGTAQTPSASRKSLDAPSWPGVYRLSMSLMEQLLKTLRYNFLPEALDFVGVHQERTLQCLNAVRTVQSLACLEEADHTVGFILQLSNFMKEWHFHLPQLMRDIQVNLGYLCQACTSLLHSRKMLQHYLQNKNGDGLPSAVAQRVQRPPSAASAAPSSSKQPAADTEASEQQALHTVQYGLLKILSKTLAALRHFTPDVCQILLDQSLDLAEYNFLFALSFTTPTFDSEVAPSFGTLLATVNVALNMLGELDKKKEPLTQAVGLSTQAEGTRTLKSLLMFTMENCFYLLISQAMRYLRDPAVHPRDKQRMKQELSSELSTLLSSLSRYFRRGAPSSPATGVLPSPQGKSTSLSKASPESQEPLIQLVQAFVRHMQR

Shown are results outside the selection of targets with a hit, which stands elsewhere. The data scatter; read single values as rough. The entries are a selection whose mix differs from that of the whole data set.

Compound in the test: COC(=O)/C=C/c1ccccc1 [methyl cinnamate]
The test is described as follows: log2 ratio of iodoacetamide-alkyne labeling of the cysteine site, DMSO over compound (competition); higher = stronger covalent engagement of the cysteine by the compound, active = 1 or more. The note with it: 500 µM; treatment time 1 h; system: HEK293T cell lysate. The method in brief: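 HEK293T lysate (2 mg/mL) was incubated with electrophile (500 µM) or vehicle for 1 h at ambient temperature and then with iodoacetamide alkyne for 1 h. Labelled proteins were clicked to sCIP-TMT reagents, pooled, digested, enriched on streptavidin and measured by Orbitrap Eclipse LC-MS/MS with FAIMS, with FragPipe quantification. The per-cysteine log2 competition ratio is mean control-channel reporter intensity over mean compound-channel reporter intensity. Across three replicates with duplicate channels, cysteines quantified in only one replicate were excluded.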
In the case of MTHFD1L C302 (UniProt Q6UB35), the “log2 ratio of iodoacetamide-alkyne labeling” value (shortened to “log2 ratio”) is inactive: 0.21.

As to FIP1L1 C216 (UniProt Q6UN15), the “log2 ratio” value is inactive: 0.096.

As for RNF123 C1180 (UniProt Q5XPI4), the “log2 ratio” value was inactive: 0.232.

For the target HEATR6 C360 (UniProt Q6AI08), the “log2 ratio” value was inactive: 0.229.

In the case of UniProt Q6PJG6_C487, the “log2 ratio” value is inactive: 0.163.

Consider RRP12 C102 (UniProt Q5JTH9), for which the “log2 ratio” value is inactive: 0.435.

For the target UBAP2 C208 (UniProt Q5T6F2), the “log2 ratio” value was inactive: -0.0507.

On to FBXL19 C145 (UniProt Q6PCT2), for which the “log2 ratio” value is inactive: 0.0749.

With UniProt Q5W0B1_C321, the “log2 ratio” value was inactive: 0.424.

With RSBN1L C280 (UniProt Q6PCB5), the “log2 ratio” value is inactive: 0.288.

Take BEND3 C95 (UniProt Q5T5X7): the “log2 ratio” value is inactive: 0.27.

Regarding ATPAF1 C321 (UniProt Q5TC12), the “log2 ratio” value is inactive: 0.39.

As to NFXL1 C528 (UniProt Q6ZNB6), the “log2 ratio” value is inactive: 0.219.

In the case of UniProt Q5FWF4_C811, the “log2 ratio” value is inactive: 0.126.

In the case of WDR73 C375 (UniProt Q6P4I2), the “log2 ratio” value was inactive: 0.0728.

As to UniProt Q6PIY7_C167, the “log2 ratio” value is inactive: -0.0863.

Regarding UniProt Q69YQ0_C79, the “log2 ratio” value is inactive: 0.469.

On to NADSYN1 C309 (UniProt Q6IA69), for which the “log2 ratio” value is inactive: -0.0871.

Consider UBN2 C966 (UniProt Q6ZU65), for which the “log2 ratio” value was inactive: 0.295.

With LARP1 C502 (UniProt Q6PKG0), the “log2 ratio” value was inactive: 0.00405.

ZC3H14 C261 (UniProt Q6PJT7): the “log2 ratio” value was inactive: 0.074.

In the case of PGM2L1 C303 (UniProt Q6PCE3), the “log2 ratio” value was inactive: 0.238.

Turning to DOCK11 C592 (UniProt Q5JSL3), the “log2 ratio” value was inactive: -0.228.

With MTHFD1L C961 (UniProt Q6UB35), the “log2 ratio” value is inactive: 0.165.

For PDE12 C108 (UniProt Q6L8Q7), the “log2 ratio” value was inactive: 0.382.

For the target DNTTIP2 C618 (UniProt Q5QJE6), the “log2 ratio” value was inactive: 0.175.

In the case of ARMC6 C484 (UniProt Q6NXE6), the “log2 ratio” value was inactive: 0.0961.

Regarding RPRD2 C88 (UniProt Q5VT52), the “log2 ratio” value is inactive: -0.00463.

For the target DUS1L C213 (UniProt Q6P1R4), the “log2 ratio” value was inactive: -0.00588.

As for UniProt Q5JSZ5_C525, the “log2 ratio” value is inactive: 0.513.

As to NUP188 C95 (UniProt Q5SRE5), the “log2 ratio” value is inactive: 0.0875.

With ARID2 C1512 (UniProt Q68CP9), the “log2 ratio” value is inactive: 0.404.

Turning to DDI2 C361 (UniProt Q5TDH0), the “log2 ratio” value is inactive: 0.107.

Consider RRP12 C799 (UniProt Q5JTH9), for which the “log2 ratio” value is inactive: 0.104.

Consider UniProt Q6PJG6_C539, for which the “log2 ratio” value was inactive: -0.0842.

On to NCAPH2 C309 (UniProt Q6IBW4), for which the “log2 ratio” value was inactive: 0.264.

CEP170 C212 (UniProt Q5SW79): the “log2 ratio” value is inactive: 0.498.
